System: S. aureus CECT 976
Assay: MIC/MBC by broth microdilution, S. aureus CECT 976
Assay type: cell-based
Conditions: Staphylococcus aureus, CECT976, 24 h
Experimental: The minimum inhibitory concentration (MIC) and minimum bactericidal concentration (MBC) values of all QHSs were determined by the broth microdilution method, according to the approved M7-A7 (aerobes) standards of the Clinical and Laboratory Standards Institute (CLSI) guidelines. Overnight cell cultures of S. aureus, in the exponential phase of growth, were adjusted to an optical density (OD) of 0.132 ± 0.02 (λ = 600 nm). Then, a volume of 180 µL of the cell suspension was added to sterile, flat, clear-bottomed polystyrene (PS) 96-well microtiter plates (VWR—Radnor, PA, USA), already containing 20 µL of each QHS under study at concentrations ranging from 0.0625 to 64 µg/mL. In the end, the volume of each compound never exceeded 10% (v/v) of the well volume. Microtiter plates were then incubated for 24 h at 37 °C under agitation (150 rpm; INCU-Line IL 150R incubator). Absorbance measurements were performed at the beginning (t = 0 h) and end (t = 24 h) of the incubation period using a microtiter plate absorbance reader (BMG LABTECH FLUOstar Omega). Bacterial suspensions with DMSO and without QHSs were used as negative controls. […]
Plates were incubated at 37 °C for 24 h, and growth was visually inspected. The MBC was determined as the lowest concentration of compound in which the total inhibition of growth on solid medium was observed (no colony forming units (CFUs) were detected). […]

Structure (SMILES): CCCCCCCCCCCCCCCC[n+]1ccccc1.[Br-] [Compound 6f, 1-Hexadecylpyridin-1-ium bromide]
- MIC: 4 µg/mL

— paper PMC10778626, “Efficacy of Novel Quaternary Ammonium and Phosphonium Salts Differing in Cation Type and Alkyl Chain Length against Antibiotic-Resistant Staphylococcus aureus” (International Journal of Molecular Sciences, 2023)
